From patent US20030171347A1, “Sigma receptor antagonists having anti-cocaine properties and uses thereof” (priority 1998, published 2003)

Target: T1, σ2 sites (Rattus norvegicus, UniProt Q5U3Y7)
T1 construct: Crude P2 membranes were prepared from guinea pig brain, rat brain, or rat liver; from tissue; host or cells: rat liver (crude P2 membranes)
T1 sequence (Q5U3Y7 1-176): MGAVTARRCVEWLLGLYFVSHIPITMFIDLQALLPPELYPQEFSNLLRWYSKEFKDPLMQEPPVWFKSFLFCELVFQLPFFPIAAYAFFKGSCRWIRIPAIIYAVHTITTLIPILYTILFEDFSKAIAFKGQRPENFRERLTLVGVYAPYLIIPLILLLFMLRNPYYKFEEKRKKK
Test: σ2 receptor competition binding

CN1[C@@H]2CC[C@H]1C[C@@H](OC(c1ccccc1)c1ccccc1)C2 [Benztropine, reference compound]
Ki (Table 5, dopamine transporter ligands): 31 ± 4 nM

OC(CCCN1CCC(O)(c2ccc(Cl)cc2)CC1)c1ccc(F)cc1 (centres unmarked) [Reduced haloperidol, reference compound]
Ki (Table 1, [3H]DTG plus dextrallorphan, rat liver, mean±SEM, minimum of two independent assays): 32 ± 4 nM
